Where a chain is given by its changes, count along the chain named. These are yes or no findings as the source states them, for the method shown. In cells and extracts the contact can be indirect. Some results given as binding are weak or reduced against the parent protein; the word gives no strength. For some of these results: Sequences can lack the tags named with a protein.

The chains behind the UniProt entries cited, without tags or fusion partners. Residues count along the entry.
UniProt P06804, residues 80-235: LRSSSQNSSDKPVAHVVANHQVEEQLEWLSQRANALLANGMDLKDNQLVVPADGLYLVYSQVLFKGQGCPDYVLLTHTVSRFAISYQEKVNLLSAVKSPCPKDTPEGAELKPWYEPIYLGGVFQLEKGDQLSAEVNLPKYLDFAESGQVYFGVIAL
UniProt Q9QZQ1: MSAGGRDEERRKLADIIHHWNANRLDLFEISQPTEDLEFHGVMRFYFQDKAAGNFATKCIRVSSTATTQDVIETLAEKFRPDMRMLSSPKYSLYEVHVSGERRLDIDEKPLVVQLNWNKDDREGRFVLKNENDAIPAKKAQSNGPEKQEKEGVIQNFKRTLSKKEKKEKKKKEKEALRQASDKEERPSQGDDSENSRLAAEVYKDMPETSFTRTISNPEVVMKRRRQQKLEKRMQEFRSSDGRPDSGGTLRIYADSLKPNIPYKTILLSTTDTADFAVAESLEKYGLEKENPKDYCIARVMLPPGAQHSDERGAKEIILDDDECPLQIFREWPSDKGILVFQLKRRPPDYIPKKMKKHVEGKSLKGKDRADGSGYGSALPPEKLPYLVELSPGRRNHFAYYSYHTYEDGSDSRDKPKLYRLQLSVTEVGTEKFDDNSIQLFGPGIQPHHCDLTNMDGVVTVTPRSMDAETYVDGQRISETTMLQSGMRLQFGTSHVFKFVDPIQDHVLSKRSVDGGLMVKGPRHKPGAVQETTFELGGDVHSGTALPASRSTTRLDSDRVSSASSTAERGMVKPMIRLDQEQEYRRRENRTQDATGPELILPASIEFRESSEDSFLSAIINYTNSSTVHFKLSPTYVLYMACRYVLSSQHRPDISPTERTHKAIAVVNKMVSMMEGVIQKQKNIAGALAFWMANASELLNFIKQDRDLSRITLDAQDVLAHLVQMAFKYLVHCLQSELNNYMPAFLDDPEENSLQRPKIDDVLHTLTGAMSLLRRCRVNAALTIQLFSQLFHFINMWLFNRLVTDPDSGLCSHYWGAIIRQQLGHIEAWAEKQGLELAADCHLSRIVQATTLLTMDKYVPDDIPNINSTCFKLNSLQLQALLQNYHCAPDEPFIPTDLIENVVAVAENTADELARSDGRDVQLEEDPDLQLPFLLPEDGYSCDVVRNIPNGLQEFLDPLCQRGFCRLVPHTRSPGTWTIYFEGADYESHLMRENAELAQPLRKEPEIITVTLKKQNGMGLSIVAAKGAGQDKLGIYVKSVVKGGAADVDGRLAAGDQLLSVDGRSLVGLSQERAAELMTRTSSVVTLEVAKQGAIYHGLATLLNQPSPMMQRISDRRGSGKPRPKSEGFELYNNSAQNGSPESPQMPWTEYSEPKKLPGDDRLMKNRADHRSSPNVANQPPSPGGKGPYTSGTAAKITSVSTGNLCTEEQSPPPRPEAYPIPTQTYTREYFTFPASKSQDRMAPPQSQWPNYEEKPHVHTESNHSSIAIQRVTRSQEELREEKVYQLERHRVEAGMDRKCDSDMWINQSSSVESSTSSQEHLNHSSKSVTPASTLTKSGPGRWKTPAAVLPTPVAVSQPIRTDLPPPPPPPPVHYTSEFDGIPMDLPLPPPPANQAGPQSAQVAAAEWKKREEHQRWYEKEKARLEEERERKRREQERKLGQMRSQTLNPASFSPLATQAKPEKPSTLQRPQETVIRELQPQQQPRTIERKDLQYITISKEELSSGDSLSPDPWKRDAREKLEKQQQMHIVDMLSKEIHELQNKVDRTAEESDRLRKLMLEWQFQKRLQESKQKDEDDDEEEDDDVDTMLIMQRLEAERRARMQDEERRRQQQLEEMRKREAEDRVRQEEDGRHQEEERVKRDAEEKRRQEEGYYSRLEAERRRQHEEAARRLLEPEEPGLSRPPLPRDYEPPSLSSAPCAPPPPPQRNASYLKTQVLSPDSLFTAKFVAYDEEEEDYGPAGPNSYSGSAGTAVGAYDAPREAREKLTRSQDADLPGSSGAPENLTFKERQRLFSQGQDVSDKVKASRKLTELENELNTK

Assay [1] deals with T1, FLAG-tagged full-length RIPK1 (UniProt Q60855).
T1 sequence: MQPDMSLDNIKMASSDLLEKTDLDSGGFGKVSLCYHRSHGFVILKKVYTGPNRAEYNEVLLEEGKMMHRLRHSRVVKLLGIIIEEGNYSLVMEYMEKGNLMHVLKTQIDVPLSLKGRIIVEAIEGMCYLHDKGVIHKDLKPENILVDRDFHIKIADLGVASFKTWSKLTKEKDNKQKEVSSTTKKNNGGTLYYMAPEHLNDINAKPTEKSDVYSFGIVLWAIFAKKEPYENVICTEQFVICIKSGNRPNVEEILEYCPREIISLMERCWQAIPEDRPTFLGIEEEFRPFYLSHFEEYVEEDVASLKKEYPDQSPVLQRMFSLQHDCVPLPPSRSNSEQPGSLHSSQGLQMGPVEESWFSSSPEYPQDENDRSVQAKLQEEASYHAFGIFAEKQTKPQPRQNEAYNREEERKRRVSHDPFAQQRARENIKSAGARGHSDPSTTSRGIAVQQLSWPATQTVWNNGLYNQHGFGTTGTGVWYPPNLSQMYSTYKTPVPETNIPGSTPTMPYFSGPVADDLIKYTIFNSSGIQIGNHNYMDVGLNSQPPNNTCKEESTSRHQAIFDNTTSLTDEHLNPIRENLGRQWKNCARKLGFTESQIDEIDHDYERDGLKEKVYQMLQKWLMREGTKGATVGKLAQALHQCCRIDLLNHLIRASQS
The assay can be described thus: co-IP; 293T cells transfected 24 h with HA-tagged AF6 and Flag-tagged RIPK1 constructs; NP-40 lysate; anti-FLAG beads 4 h at room temperature; immunoblot.

In assay [2] the target is TNFα-FLAG (UniProt P06804). Kind of assay: co-IP; Complex I precipitation: MEFs stimulated with FLAG-TNFα (100 ng/mL), lysed in NP-40 buffer, anti-FLAG beads; immunoblot; only the target purified.
The target in assay [3] is T2, RIPK1 (receptor-interacting serine/threonine kinase 1), endogenous, mouse (mouse (endogenous in primary hepatocytes and MEFs)) (UniProt Q60855).
T2 sequence: T1 sequence
Kind of assay: co-IP; endogenous proteins in lysate of Af6 flox/flox mouse primary hepatocytes (NP-40 buffer); control mouse IgG, anti-AF6 or anti-RIPK1 monoclonal antibody, A/G-agarose beads; immunoblot. For orientation: Immunoblotting shows a protein as a band on a membrane.

Assay [4] addresses TNFα-FLAG (UniProt P06804). Kind of assay: co-IP; Complex I precipitation: primary hepatocytes of Af6 flox/flox mice stimulated with Flag-TNFα (100 ng/mL), lysed in NP-40 buffer, anti-FLAG beads; immunoblot; only the target purified.
Assay [5] has as its target T2, RIPK1 (receptor-interacting serine/threonine kinase 1), endogenous, mouse (mouse (endogenous in primary hepatocytes and MEFs)). The assay can be described thus: co-IP; endogenous proteins in lysate of MEF cells (wild type or RIPK1 K376R/K376R; NP-40 buffer); control mouse IgG, anti-AF6 or anti-RIPK1 monoclonal antibody, A/G-agarose beads; immunoblot.
The target of assay [6] is T3, RIPK1 K376R (endogenous, knock-in MEFs) (mouse (endogenous in MEFs)) (UniProt Q60855).
T3 sequence: T1 sequence with K376R
The assay is described as above.

The target in assay [7] is AF6 (endogenous, mouse) (mouse (endogenous in primary hepatocytes and MEFs)) (UniProt Q9QZQ1). The assay can be described thus: co-IP; endogenous proteins in lysate of Af6 flox/flox mouse primary hepatocytes (NP-40 buffer); control mouse IgG, anti-AF6 or anti-RIPK1 monoclonal antibody, A/G-agarose beads; immunoblot.
Assay [8] deals with T2, RIPK1 (receptor-interacting serine/threonine kinase 1), endogenous, mouse (mouse (endogenous in primary hepatocytes and MEFs)). The description is as above. The source holds these as a separate data set.

Regarding “HA-tagged AF6 (from UniProt Q9QZQ1 1-1820)”, the binding entry in assay [1] is recorded as “binds”.
On to “AF6 (endogenous, mouse) (from UniProt Q9QZQ1 1-1820)”, for which the binding entry (with TNFα-FLAG [2]; in assay [3]; with TNFα-FLAG [4]; in assay [5]; in assay [6]) was “binds” in each case.

B1: ubiquitin-specific peptidase 21 (USP21), endogenous, mouse (enzyme, UniProt Q9QZL6 1-566)
chain: MPQASEHRLGRTREPPVNVQPRVGAKIPFPPRARSKERRNPVPGPNSMLRPLPPRPGPPDERLKKLELGRGRTSGSRPRGPLRADHGVPLPGSPPPAVALPLPSRTNLARSKSVSSGDLRPMGIALGGHRGAGELGAALSRLALRPEPPTLRRSTSLRRLGGFPGPPTLLSIRTEPPTSHGSFHMISARPSEPFYSDDKMAHHTLLLGSGHVGLRNLGNTCFLNAVLQCLSSTRPLRDFCLRRDFRQEVPGGGRAQELTEAFADVIGALWHPDSCEAVNPTRFRAVFQKYVPSFSGYSQQDAQEFLKLLMERLHLEINRRGRRAPPILASGPVPSPPRRGGGALHEEPELSDDDRANLMWKRYLEREDSKIVDLFVGQLKSCLKCQACGYRSTTFEVFCDLSLPIPKKGFAGGKVSLRDCFSLFTKEEELESENAPVCDRCRQKTRSTKKLTVQRFPRILVLHLNRFSTSRGSIKKSSVGVDFPLQRLSLGDFASDKAGSPVYQLYALCNHSGSVHYGHYTALCRCQTGWHVYNDSRVSPVSENQVASSEGYVLFYQLMQEPLRCL
As to B1, the binding entry in assay [7] and in assay [8] was “binds” in each case.

B2: cylindromatosis (CYLD), endogenous, mouse (enzyme, UniProt Q80TQ2 1-952)
chain: MSSGLWSQEKVTSPYWEERIFYLLLQECSVTDKQTQKLLKVPKGSIGQYIQDRSVGHSRVPSTKGKKNQIGLKILEQPHAVLFVDEKDVVEINEKFTELLLAITNCEERLSLFRNRLRLSKGLQVDVGSPVKVQLRSGEEKFPGVVRFRGPLLAERTVSGIFFGVELLEEGRGQGFTDGVYQGKQLFQCDEDCGVFVALDKLELIEDDDNGLESDFAGPGDTMQVEPPPLEINSRVSLKVGESTESGTVIFCDVLPGKESLGYFVGVDMDNPIGNWDGRFDGVQLCSFASVESTILLHINDIIPDSVTQERRPPKLAFMSRGVGDKGSSSHNKPKVTGSTSDPGSRNRSELFYTLNGSSVDSQQSKSKNPWYIDEVAEDPAKSLTEMSSDFGHSSPPPQPPSMNSLSSENRFHSLPFSLTKMPNTNGSMAHSPLSLSVQSVMGELNSTPVQESPPLPISSGNAHGLEVGSLAEVKENPPFYGVIRWIGQPPGLSDVLAGLELEDECAGCTDGTFRGTRYFTCALKKALFVKLKSCRPDSRFASLQPVSNQIERCNSLAFGGYLSEVVEENTPPKMEKEGLEIMIGKKKGIQGHYNSCYLDSTLFCLFAFSSALDTVLLRPKEKNDIEYYSETQELLRTEIVNPLRIYGYVCATKIMKLRKILEKVEAASGFTSEEKDPEEFLNILFHDILRVEPLLKIRSAGQKVQDCNFYQIFMEKNEKVGVPTIQQLLEWSFINSNLKFAEAPSCLIIQMPRFGKDFKLFKKIFPSLELNITDLLEDTPRQCRICGGLAMYECRECYDDPDISAGKIKQFCKTCSTQVHLHPRRLNHSYHPVSLPKDLPDWDWRHGCIPCQKMELFAVLCIETSHYVAFVKYGKDDSAWLFFDSMADRDGGQNGFNIPQVTPCPEVGEYLKMSLEDLHSLDSRRIQGCARRLLCDAYMCMYQSPTMSLYK
Regarding B2, in assay [7], the binding result is on record as “no binding”.

B3: A20 (TNFα-induced protein 3), endogenous, mouse (enzyme, UniProt Q60769 1-775)
chain: MAEQLLPQALYLSNMRKAVKIRERTPEDIFKPTNGIIYHFKTMHRYTLEMFRTCQFCPQFREIIHKALIDRSVQASLESQKKLNWCREVRKLVALKTNGDGNCLMHAACQYMWGVQDTDLVLRKALCSTLKETDTRNFKFRWQLESLKSQEFVETGLCYDTRNWNDEWDNLVKMASADTPAARSGLQYNSLEEIHIFVLSNILRRPIIVISDKMLRSLESGSNFAPLKVGGIYLPLHWPAQECYRYPIVLGYDSQHFVPLVTLKDSGPELRAVPLVNRDRGRFEDLKVHFLTDPENEMKEKLLKEYLIVMEIPVQGWDHGTTHLINAAKLDEANLPKEINLVDDYFELVQHEYKKWQENSDQARRAAHAQNPLEPSTPQLSLMDIKCETPNCPFFMSVNTQPLCHECSERRQKNQSKLPKLNSKLGPEGLPGVGLGSSNWSPEETAGGPHSAPPTAPSLFLFSETTAMKCRSPGCPFTLNVQHNGFCERCHARQINASHTADPGKCQACLQDVTRTFNGICSTCFKRTTAEPSSSLTSSIPASCHQRSKSDPSQLIQSLTPHSCHRTGNVSPSGCLSQAARTPGDRAGTSKCRKAGCMYFGTPENKGFCTLCFIEYRENKQSVTASEKAGSPAPRFQNNVPCLGRECGTLGSTMFEGYCQKCFIEAQNQRFHEARRTEEQLRSSQHRDMPRTTQVASRLKCARASCKNILACRSEELCMECQHLSQRVGSVAHRGEPTPEEPPKQRCRAPACDHFGNAKCNGYCNECYQFKQMYG
For B3, the binding entry in assay [7] is listed as “no binding”.

(Values after PMC10570300.)
